Reference: PubChem BioAssay AID2551 (National Center for Advancing Translational Sciences (NCATS), 2010)
Out of some 310,000 compounds screened, about 17,000 (5.5%) were called active. This list was built around the results that the source calls inconclusive (neither active nor inactive); the mix of calls is not that of the screen. Calls come from the whole dose curve; as a rule, active = well fitted inhibition curve with a large enough effect; inconclusive = small, poorly fitted or top-dose-only effect, or effect the other way; inactive = no such curve, though single readings can be large or run the other way. Where the call is inconclusive, the potency comes from a doubtful curve fit.

By UniProt entry, the sequences of proteins in these tests, tags left out. Where a name states a change or a piece, a line headed by the entry shows the natural chain unless it says otherwise.
UniProt P51450: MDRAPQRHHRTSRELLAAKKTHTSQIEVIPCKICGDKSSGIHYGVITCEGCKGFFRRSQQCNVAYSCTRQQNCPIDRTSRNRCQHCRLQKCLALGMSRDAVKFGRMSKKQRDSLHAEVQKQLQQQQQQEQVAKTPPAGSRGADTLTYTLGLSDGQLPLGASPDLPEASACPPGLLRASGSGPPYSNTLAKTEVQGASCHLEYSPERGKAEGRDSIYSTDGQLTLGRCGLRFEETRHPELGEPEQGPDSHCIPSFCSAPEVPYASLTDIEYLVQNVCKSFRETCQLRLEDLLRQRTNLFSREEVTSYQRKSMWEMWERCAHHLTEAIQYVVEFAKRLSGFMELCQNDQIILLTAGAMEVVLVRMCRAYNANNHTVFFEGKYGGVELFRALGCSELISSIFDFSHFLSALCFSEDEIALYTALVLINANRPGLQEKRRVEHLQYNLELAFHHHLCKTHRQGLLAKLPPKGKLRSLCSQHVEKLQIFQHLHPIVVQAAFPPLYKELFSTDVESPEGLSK

molecular target: Nuclear receptor ROR-gamma (Mus musculus) (UniProt P51450); test: qHTS for inhibitors of ROR gamma transcriptional activity; conditions: Drosophila S2 Gal4-RORgamma UAS-luciferase reporter, 20 h; activity change, negative = inhibition: at 53.6 µM (top of the series); note: nearly all actives have a fitted effect of over 60% in size
Source text: NIH Molecular Libraries Probe Production Network [MLPCN] NIH Chemical Genomics Center [NCGC] MLPCN Grant: R03 DA026211-01 Assay Provider: Dan Littman, New York University Assay Overview: The retinoic acid-related orphan receptor (ROR) gamma is a transcription factor that has a central role in the differentiation of Th17 cells, a subset of T helper cells that secrete the inflammatory cytokines IL-17, IL-17F, and IL-22. Th17 cells have been implicated in graft versus host disease, autoimmune disease and asthma. ROR gamma is induced in naive T helper cells in the presence of TGF-beta combined with IL-6, IL-21, or IL-23, and thereafter directs the expression of the Th17 lineage cytokines. To study the mechanism of action of ROR gamma, an insect cell-based assay was screened. This Drosophila Schneider cell line was stably transfected with two vectors: a gene expressing a fusion of the Gal4 DNA binding domain and ROR gamma transactivation domain under the control of the metallothionine promoter and a Photinus luciferase reporter regulated by the Gal4 binding site enhancer, UAS. […] Small molecule inhibitors of ROR gamma activity are detected by a decrease in luciferase reporter activity.
Assay Protocol Summary: For screening, 600 cells in 4 uL/well were dispensed into white solid 1536-well plates (Grenier) using a solenoid-based dispenser. Following transfer of 23 nL compound or DMSO vehicle by a pin tool, the plates were incubated 1 hr at ambient temperature, and 1 uL/well copper sulfate (700 uM final concentration) was added. The plates were centrifuged 15 s at 1000 RPM and incubated 20 hr at ambient temperature. After addition of 1.5 uL Photinus luciferase detection reagent, the plates were incubated 10 min at ambient temperature and then read by an ViewLux (Perkin Elmer) to detect luminescence. Keywords: NIH Roadmap, MLPCN, MLI, MLSMR, qHTS, NCGC, qHTS, nuclear hormone receptor, retinoic acid-related orphan receptor, ROR gamma
% is set by controls: 0 for no effect and ±100 for the full control effect; potency is the fitted concentration of half-maximal effect.

| SMILES | Potency | activity change, negative = inhibition |
| --- | --- | --- |
| Cc1ccc(C(=O)NNC(=O)c2cc3cc4ccccc4nc3s2)cc1 | inconclusive: 35.5 µM [inhibitor, single point] | – |
| O=C1C(C2=NC(c3ccccn3)C3C(=O)N(c4ccc(Cl)cc4Cl)C(=O)C23)=C(O)c2ccccc21 (stereo not given) | inconclusive: 1.78 µM [inhibitor, full curve] | – |
| COCC(C)n1c(C)cc(C(=O)CSc2nnc(Nc3ccccc3F)s2)c1C (stereo not given) | inconclusive: 1.58 µM [activator, full curve, poor fit] | – |
| CC(C)(C)c1cc(C(=O)N/N=C/c2ccc(O)cc2)n(-c2ccccc2)n1 | inconclusive: 11.2 µM [activator, partial curve] | – |
| O=C1c2cccc3cccc(c23)C(=O)N1CCN1CCN(C(=S)Nc2ccc(Cl)cc2)CC1 | active: 2.82 µM | – |
| O=C(NC(=S)Nc1ccccc1C(=O)O)c1ccc(-c2ccc(Br)cc2)o1 | inconclusive: 14.1 µM [activator, partial curve] | – |
| Cc1ccc(NC(=S)/N=C(\N)Nc2nc(C)c3ccccc3n2)cc1C | active: 1 µM | – |
| COc1c(O)cc(O)cc1O | – | inactive: 7.48% |
| CCSc1nnc(Cc2cc(=O)[nH]c(=O)[nH]2)n1-c1ccc(F)cc1 | inconclusive: 0.794 µM [activator, single point] | – |
| COc1ccc(Cl)cc1C(=O)Nn1c(C)nc2ccccc2c1=O | – | inactive: 4.6% |
| Cc1ccc(C(=O)Nc2ccc3ccccc3n2)cc1 | inconclusive: 3.55 µM [inhibitor, partial curve] | – |
| COCCCN1C(=O)C(O)=C(C(C)=O)C1c1ccccn1 (stereo not given) | inconclusive: 3.98 µM [inhibitor, full curve, poor fit] | – |
| CCN(CC)S(=O)(=O)c1cccc(C(=O)OCC(=O)N2CC(=O)Nc3ccccc32)c1 | – | inactive: 1.91% |
| COC(=O)c1c(-c2ccncc2)csc1NC(=O)c1ccoc1C | inconclusive: 0.316 µM [activator, partial curve, poor fit] | – |
| N#Cc1c(/N=C/c2ccco2)sc2c1CCCCC2 | inconclusive: 0.631 µM [activator, partial curve] | – |
| CCOC(=O)CN=C1CC(C)(C)CC2=C1Sc1ncnc(N(C)C)c1N2 | active: 11.2 µM | – |
| Cn1nc2c(c1C(=O)N1CCCC(C(=O)c3cc(F)ccc3F)C1)CCCC2 (stereo not given) | inconclusive: 11.2 µM [activator, partial curve] | – |
| COc1cc(NC(=S)NNC(=O)CC(C)C)c(OC)cc1Cl | inconclusive: 11.2 µM [inhibitor, partial curve] | – |
| COC(=O)CCCN1C(=O)c2cccc3cccc(c23)C1=O | inconclusive: 6.31 µM [activator, partial curve, poor fit] | – |
| O=c1oc(-c2ccccc2)nc2c1C1(CCCCC1)Cc1ccccc1-2 | – | inactive: -25.1% |
| O=C(OCc1cc(=O)n2cc(Br)ccc2n1)c1ccc(Cl)c(S(=O)(=O)NCc2ccccc2)c1 | inconclusive: 11.2 µM [activator, partial curve] | – |
| NS(=O)(=O)c1ccc(N/N=C/c2ccc(O)c(O)c2O)c([N+](=O)[O-])c1 | – | inactive: -6.8% |
| COc1cccc(-c2c(NC(=O)c3ccco3)n(-c3ccc(C)cc3)nc(C)c2=O)c1 | inconclusive: 0.005 µM [inhibitor, full curve] | – |

| SMILES | Potency | activity change, negative = inhibition |
| --- | --- | --- |
| Cc1ccc2c(CN3CCC(C)CC3)cc(=O)oc2c1 | inconclusive: 2.82 µM [activator, single point] | – |
| CCCn1c(C)nc2c(N3CCC(N(C)C)C3)nc(C)nc21 (stereo not given) | – | inactive: -7.58% |
| CCOc1ccc(OCC)c(NC(=O)C2CCCN(S(=O)(=O)c3c(C)n[nH]c3C)C2)c1 (stereo not given) | – | inactive: 30.3% |
| CCOC(=O)c1cccc(NC(=O)C2CCCN(S(=O)(=O)c3c(C)nn(C)c3C)C2)c1 (stereo not given) | – | inactive: 0% |
| Cc1ccc(-n2c(C)cc(C(=O)COC(=O)c3ccc[nH]c3=O)c2C)cc1 | active: 11.2 µM | – |
| CCNc1nc(OCCNS(=O)(=O)c2cc(C)ccc2C)nc(N(C)C)n1 | inconclusive: 0.0398 µM [inhibitor, partial curve, poor fit] | – |
| CCc1ccc2c(c1)CCCN2C(=O)c1ccccc1C(=O)O | inconclusive: 4.47 µM [inhibitor, full curve, poor fit] | – |
| O=C1CCCN1CCC1CCN(C2CC(=O)N(c3ccc(Cl)cc3)C2=O)CC1 (stereo not given) | inconclusive: 35.5 µM [inhibitor, single point] | – |
| Cc1nnc(N/N=C/c2ccc(-c3ccccc3F)o2)n1N | active: 7.94 µM | – |
| Clc1ccc2nc(CSCc3ccccc3)cn2c1 | inconclusive: 35.5 µM [inhibitor, single point] | – |
| COc1ccccc1OCC(=O)N1CCN(c2ccccc2OC)CC1 | – | inactive: 11.7% |
| Cc1csc2ncnc(N3CCN(S(=O)(=O)c4cccc(C(F)(F)F)c4)CC3)c12 | inconclusive: 22.4 µM [inhibitor, single point] | – |
| COCCCNC(=O)CSc1nc2cc(C(=O)NCCOC)ccc2c(=O)n1Cc1ccc2c(c1)OCO2 | – | inactive: 4.14% |
| O=C(Cc1cccs1)Nc1cccc(-c2nc3ccccc3[nH]2)c1 | inconclusive: 12.6 µM [activator, partial curve] | – |
| O=[N+]([O-])/C(=C\Nc1ccccc1Cl)S(=O)(=O)c1ccccc1 | inconclusive: 25.1 µM [inhibitor, single point] | – |
| O=C(N/N=C/c1ccccc1Cl)c1ccncc1 | – | inactive: 0.388% |
| C=CCNc1nc(Nc2ccc(OC)cc2)nc(OCC)n1 | inconclusive: 35.5 µM [inhibitor, single point] | – |
| CCN(C(=S)Nc1cc(S(=O)(=O)N2CCOCC2)ccc1Cl)c1cccc2ccccc12 | inconclusive: 15.8 µM [inhibitor, single point] | – |
| COc1cc(S(=O)(=O)Nc2cccc3cn[nH]c23)c(OC)cc1Cl | – | inactive: -5.32% |
| O=C(Nc1ccc(F)cc1)c1ccc2c(=O)n(CC3CCCO3)c(=S)[nH]c2c1 (stereo not given) | inconclusive: 11.2 µM [inhibitor, partial curve] | – |
| C=CCn1c(=O)c(C(=O)Nc2ccccc2O)c(O)c2ccccc21 | – | inactive: -11.3% |
| Cc1nn(C)c(C(=O)NNC(=S)Nc2ccc(F)cc2)c1[N+](=O)[O-] | active: 7.94 µM | – |

Some of the entries above in another layout.
Cc1nnc(N/N=C/c2ccc(-c3ccccc3F)o2)n1N
  Potency: active: 7.94 µM
C=CCNc1nc(Nc2ccc(OC)cc2)nc(OCC)n1
  Potency: inconclusive: 35.5 µM [inhibitor, single point]
Cc1nn(C)c(C(=O)NNC(=S)Nc2ccc(F)cc2)c1[N+](=O)[O-]
  Potency: active: 7.94 µM
